In PMC10661827:
These are yes or no findings as the source states them, for the method shown. In cells and extracts the contact can be indirect. Some results given as binding are weak or reduced against the parent protein; the word gives no strength.

Chains of the proteins cited; added tags and fusions are not shown.
UniProt Q5S006: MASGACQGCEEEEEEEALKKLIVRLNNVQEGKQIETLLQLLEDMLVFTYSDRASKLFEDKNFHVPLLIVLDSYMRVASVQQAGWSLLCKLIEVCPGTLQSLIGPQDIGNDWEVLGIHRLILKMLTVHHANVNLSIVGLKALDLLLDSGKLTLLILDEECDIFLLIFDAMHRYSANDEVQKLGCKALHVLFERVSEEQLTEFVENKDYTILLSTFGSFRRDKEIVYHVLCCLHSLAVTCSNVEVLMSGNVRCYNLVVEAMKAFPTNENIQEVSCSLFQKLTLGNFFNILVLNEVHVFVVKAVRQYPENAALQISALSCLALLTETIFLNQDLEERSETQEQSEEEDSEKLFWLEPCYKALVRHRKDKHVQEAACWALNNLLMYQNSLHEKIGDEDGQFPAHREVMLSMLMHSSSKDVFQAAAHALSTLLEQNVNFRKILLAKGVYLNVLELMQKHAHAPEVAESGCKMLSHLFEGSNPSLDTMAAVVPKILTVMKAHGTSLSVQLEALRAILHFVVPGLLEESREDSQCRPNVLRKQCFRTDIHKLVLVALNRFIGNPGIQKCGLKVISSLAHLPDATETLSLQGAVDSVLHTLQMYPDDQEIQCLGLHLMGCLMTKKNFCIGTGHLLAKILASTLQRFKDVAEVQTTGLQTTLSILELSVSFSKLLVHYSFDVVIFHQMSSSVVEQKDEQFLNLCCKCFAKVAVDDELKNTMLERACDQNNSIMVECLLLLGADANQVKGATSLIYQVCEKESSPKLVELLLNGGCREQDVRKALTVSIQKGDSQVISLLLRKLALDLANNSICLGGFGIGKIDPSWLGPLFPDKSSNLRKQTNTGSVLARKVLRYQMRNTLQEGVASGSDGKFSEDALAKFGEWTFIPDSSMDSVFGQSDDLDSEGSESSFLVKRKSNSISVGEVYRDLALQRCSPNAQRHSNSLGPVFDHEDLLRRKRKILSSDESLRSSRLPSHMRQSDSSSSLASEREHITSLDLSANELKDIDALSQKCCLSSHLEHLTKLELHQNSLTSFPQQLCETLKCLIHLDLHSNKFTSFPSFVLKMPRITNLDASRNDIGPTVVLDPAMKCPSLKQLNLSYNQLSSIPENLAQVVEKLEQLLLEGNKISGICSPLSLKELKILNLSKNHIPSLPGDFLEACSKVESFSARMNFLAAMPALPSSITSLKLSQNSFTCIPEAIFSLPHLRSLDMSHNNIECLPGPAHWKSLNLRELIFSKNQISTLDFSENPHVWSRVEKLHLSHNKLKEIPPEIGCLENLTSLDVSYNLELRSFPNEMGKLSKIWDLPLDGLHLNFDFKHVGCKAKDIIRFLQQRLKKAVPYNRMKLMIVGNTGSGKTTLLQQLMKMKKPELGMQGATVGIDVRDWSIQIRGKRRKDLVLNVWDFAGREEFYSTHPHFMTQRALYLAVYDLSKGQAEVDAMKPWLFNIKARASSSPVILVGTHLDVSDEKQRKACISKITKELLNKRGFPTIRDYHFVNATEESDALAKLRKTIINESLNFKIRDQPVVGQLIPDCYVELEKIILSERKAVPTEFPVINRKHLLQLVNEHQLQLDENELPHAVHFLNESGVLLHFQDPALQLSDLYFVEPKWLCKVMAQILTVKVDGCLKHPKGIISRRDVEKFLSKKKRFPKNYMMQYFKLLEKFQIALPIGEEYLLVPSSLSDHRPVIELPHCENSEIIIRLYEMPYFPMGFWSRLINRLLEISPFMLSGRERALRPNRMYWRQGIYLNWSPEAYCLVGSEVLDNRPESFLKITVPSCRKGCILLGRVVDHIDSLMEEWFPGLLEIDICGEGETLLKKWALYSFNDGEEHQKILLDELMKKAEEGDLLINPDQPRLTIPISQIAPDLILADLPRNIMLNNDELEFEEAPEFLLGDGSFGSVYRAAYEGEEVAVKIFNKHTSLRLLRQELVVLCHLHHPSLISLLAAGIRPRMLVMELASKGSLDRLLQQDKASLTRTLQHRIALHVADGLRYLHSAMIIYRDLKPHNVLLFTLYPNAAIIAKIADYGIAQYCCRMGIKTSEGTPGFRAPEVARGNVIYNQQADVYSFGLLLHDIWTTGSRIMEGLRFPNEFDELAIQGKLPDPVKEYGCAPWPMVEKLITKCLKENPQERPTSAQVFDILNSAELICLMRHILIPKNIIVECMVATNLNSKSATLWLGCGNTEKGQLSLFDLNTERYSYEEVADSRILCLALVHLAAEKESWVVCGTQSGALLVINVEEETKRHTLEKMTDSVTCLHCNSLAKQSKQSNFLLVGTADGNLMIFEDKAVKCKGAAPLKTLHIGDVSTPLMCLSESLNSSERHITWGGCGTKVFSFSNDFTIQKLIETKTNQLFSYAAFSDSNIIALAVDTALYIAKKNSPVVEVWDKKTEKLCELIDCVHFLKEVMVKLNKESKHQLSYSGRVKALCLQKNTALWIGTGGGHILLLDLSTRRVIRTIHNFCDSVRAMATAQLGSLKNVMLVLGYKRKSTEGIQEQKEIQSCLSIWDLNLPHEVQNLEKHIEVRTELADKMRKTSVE
UniProt P14873: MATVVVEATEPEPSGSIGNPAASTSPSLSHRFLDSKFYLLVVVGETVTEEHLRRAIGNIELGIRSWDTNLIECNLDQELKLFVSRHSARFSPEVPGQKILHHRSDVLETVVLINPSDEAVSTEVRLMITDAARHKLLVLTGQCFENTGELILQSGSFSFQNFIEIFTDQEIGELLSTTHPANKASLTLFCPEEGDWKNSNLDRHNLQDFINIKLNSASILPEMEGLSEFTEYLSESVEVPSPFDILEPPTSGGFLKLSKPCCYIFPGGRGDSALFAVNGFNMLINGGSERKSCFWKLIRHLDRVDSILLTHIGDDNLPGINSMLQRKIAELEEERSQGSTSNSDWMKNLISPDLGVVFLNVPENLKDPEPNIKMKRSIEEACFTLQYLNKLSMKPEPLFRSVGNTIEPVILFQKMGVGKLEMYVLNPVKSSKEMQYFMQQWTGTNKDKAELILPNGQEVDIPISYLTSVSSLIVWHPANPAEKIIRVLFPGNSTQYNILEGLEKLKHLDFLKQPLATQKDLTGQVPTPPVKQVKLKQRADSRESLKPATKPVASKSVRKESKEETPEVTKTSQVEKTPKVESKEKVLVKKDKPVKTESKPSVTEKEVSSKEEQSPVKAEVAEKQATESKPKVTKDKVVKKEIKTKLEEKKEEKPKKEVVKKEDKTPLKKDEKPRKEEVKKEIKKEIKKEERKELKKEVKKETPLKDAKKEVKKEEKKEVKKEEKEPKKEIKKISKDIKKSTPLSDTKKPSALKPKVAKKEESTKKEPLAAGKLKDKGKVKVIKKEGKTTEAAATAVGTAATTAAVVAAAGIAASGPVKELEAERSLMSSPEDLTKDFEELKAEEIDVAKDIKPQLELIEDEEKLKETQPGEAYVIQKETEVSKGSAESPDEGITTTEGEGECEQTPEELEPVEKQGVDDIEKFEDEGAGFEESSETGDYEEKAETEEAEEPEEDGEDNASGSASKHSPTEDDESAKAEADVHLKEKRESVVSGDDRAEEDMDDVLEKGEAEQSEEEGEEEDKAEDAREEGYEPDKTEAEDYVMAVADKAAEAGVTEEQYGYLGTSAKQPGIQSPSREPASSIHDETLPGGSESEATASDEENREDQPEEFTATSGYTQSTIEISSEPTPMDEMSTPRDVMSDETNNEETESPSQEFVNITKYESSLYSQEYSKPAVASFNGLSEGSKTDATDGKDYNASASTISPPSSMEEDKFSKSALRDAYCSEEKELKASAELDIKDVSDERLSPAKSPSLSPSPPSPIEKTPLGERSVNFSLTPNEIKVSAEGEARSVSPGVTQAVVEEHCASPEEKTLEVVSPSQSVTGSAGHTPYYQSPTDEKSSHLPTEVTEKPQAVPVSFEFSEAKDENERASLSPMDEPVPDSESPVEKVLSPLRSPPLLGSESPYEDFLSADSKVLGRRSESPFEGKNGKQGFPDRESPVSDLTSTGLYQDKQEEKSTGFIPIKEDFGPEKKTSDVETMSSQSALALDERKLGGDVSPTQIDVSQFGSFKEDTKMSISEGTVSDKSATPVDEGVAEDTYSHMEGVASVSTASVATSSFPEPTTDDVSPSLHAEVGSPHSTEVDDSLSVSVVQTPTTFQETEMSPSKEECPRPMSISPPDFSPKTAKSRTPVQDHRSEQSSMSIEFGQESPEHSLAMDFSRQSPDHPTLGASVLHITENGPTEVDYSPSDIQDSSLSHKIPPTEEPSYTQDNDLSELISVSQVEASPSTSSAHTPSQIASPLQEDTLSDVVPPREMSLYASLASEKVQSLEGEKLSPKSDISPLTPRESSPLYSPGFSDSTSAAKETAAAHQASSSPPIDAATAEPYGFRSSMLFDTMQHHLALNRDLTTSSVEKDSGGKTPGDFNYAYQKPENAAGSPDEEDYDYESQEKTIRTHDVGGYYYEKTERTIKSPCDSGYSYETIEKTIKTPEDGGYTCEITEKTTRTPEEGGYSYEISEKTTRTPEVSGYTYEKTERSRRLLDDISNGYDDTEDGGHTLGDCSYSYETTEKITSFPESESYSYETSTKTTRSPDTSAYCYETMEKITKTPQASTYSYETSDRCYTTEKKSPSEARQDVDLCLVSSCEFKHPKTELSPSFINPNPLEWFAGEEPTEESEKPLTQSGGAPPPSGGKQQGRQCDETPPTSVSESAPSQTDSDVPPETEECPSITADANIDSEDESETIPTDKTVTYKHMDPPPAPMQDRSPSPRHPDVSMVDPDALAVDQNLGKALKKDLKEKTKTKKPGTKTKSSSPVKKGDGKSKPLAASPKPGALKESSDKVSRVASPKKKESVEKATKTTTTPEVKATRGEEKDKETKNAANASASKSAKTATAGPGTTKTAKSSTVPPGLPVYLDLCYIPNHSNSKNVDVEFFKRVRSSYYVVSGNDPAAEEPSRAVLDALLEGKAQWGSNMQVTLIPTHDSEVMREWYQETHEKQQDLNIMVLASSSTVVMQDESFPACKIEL

Key:
[1] = biological target: leucine-rich repeat kinase 2 (LRRK2) (mouse (endogenous in N2a cells and C57BL/6 mouse cortex)) (UniProt Q5S006); test: co-IP; endogenous proteins in N2a cells; LRRK2 as bait, MAP1B detected; rabbit IgG as negative control
[2] = biological target: leucine-rich repeat kinase 2 (LRRK2) (mouse (endogenous in N2a cells and C57BL/6 mouse cortex)) (UniProt Q5S006); test: co-IP; anti-LRRK2 (1:50) on magnetic beads incubated with C57BL/6 mouse cortical lysates; washes, SDS-PAGE and immunoblotting; isotype rabbit IgG as negative control

microtubule-associated protein 1B (MAP1B) (from UniProt P14873 1-2464)
binding [1]: binds | binding [2]: binds
